This data set has as its target T1, LexA (Nostoc sp. PCC 7120) (UniProt A0ACD7RYW4).
T1 sequence (looked up): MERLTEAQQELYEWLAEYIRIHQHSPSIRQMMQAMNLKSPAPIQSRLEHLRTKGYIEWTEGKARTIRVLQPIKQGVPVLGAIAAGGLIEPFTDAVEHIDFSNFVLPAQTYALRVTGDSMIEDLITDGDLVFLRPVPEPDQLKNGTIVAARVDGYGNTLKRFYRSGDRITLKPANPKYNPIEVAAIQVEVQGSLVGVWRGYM
The data set can be described thus: EMSA. Conditions: residues 1-201; probe letters rebuilt from the primers and the genome.

Protein sequences can lack the tags named with them.

The sequence “GACGGTACCAAAAAACAATAGGGATATCAGACAGAATTAAAAACGCAAAATTTAAAACTCAAAACGGGAGATTTTGAATTTTGAATTTTGAATTGCTAAACAGTCCTCTTACCCATAAAGCGGAAGAATAACTTCTCCATCTCCACCCAAACAAACATCAAGGCGCTGAAGCCGACGCAAATTGCTAACTCGTCAAGTGGTAGCCAGTGAGTGCCAAAGAAATCCCGCAGGGGTGGAACGTAGACCAGCATGAGTTGCAAAATTGTTGTGACAACAACTGCCCCTAATACATAAGGATTTGAGACAGGAGAGCTCGTC (double strand) [PrecF]” displayed a half-maximal binding of 101 nM.
